# Results: PubChem BioAssay AID1671190 (National Center for Advancing Translational Sciences (NCATS), 2021)
# Sequences of proteins named here, by UniProt entry; tags and fusion partners are left off. A change or cut given only in a name is not applied to a line headed by its entry.
# UniProt P18054: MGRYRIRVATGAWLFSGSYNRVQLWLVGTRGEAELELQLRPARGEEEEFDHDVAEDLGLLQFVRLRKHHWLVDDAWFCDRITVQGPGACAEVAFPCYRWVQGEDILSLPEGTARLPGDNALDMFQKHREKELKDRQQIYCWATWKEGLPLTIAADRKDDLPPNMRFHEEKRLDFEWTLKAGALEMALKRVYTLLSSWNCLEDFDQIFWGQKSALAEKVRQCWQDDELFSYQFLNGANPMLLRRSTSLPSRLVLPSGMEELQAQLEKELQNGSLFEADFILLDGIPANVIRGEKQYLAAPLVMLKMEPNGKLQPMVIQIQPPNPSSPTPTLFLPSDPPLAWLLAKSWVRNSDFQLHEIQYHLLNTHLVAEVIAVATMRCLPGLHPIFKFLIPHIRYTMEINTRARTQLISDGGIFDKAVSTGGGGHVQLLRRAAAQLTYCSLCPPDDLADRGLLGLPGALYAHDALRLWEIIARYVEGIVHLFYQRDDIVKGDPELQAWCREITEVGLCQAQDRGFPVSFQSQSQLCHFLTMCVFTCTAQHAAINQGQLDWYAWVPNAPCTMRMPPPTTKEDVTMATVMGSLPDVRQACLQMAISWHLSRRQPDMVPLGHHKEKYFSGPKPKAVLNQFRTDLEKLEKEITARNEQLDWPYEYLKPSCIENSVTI
# Among all 580,000 compounds or so, about 6,100 (1.1%) were called active. The inconclusive results got no clear call from the source; some entries with a clear call stand among them for comparison. The call rests on the fitted dose curve; in most records, active means well fitted inhibition curve with a large enough effect; inconclusive means small, poorly fitted or top-dose-only effect, or another doubt; inactive means no such curve, though single readings can be large or run the other way. A potency beside an inconclusive call is a rough fit, not a confirmed value.
# Biological target: Polyunsaturated fatty acid lipoxygenase ALOX12 (Homo sapiens) (UniProt P18054)
# Assay: Primary qHTS assay for inhibitors of human arachidonate 12S-lipoxygenase (ALOX12): Round 2
# Conditions: purified 12hLO, xylenol orange hydroperoxide absorbance; activity change, negative = inhibition: at 108 µM (top of the series) unless noted
# Procedure, shortened: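 Purified human 12hLO (150 nM final) in 25 mM Hepes, 0.01% Triton X-100, pH 7.0 was preincubated 15 min at room temperature with compound. Then 40 uM arachidonic acid was added, 30 min. Hydroperoxide was read by Fe-XO absorbance ratio 573/405 nm.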
# On the % scale 0 is the no-effect control and ±100 the full control effect; potency means the concentration at half of the fitted maximal effect.
SMILES,Potency,"activity change, negative = inhibition"
CCOC(=O)/C=c1\s/c(=C\c2ccc(C(F)(F)F)cc2)c(=O)n1CC(=O)NCc1ccco1,"inconclusive: 28.2 µM [inhibitor, partial curve, poor fit]",
c1ccc(-c2nc3c4ccccc4ccn3c2CC2CCCCC2)cc1,"inconclusive: 35.5 µM [inhibitor, partial curve, poor fit]",
O=C(Cc1ccccc1F)N1CCC(c2n[nH]c(=O)n2-c2ccccc2)CC1,"inconclusive: 12.6 µM [inhibitor, full curve, poor fit]",
Cc1ccc(S(=O)(=O)N(C)C[C@H]2OCCCC[C@@H](C)Oc3ccc(N(C)C)cc3C(=O)N([C@H](C)CO)C[C@@H]2C)cc1,"inconclusive: 50.1 µM [inhibitor, partial curve, poor fit]",
O=C(/C=C/c1ccco1)Nc1scc(-c2ccccc2)c1C(=O)O,"inconclusive: 44.7 µM [inhibitor, partial curve, poor fit]",
C=CCc1ccc(OCC(O)CN2CCC(Cc3ccccc3)CC2)c(OC)c1 (stereo not given),"inconclusive: 39.8 µM [inhibitor, single point]",
CC(=O)c1ccc(N2CCN(C(=O)/C=C/c3ccc(S(=O)(=O)N4CCOCC4)cc3)CC2)cc1,,inactive: 1.66%
O=C(CSc1nnc(-c2ccc(S(=O)(=O)N3CCCCCC3)cc2)o1)c1ccccc1,,inactive: 14.3%
COc1ccc(CN2C(=O)c3cccnc3C2Nc2cc(Cl)ccc2OC)cc1 (stereo not given),active: 12.6 µM,
CCCCc1ccc(NC(=O)c2nccnc2N)cc1,,inactive: 70.6%
CN1CCCC1=Nc1c2c(nc3ccccc13)N(C)CC2,"inconclusive: 44.7 µM [inhibitor, partial curve, poor fit]",
COc1cccc(NC(=O)CSc2nc(C3CC3)nc3ccccc23)c1,,inactive: -13.6%
C=CCN1C(=O)/C(=C2/Sc3ccc(OC)cc3N2CC)SC1=S,,inactive: 14.5%
COC(=O)CC1CCN(C(=O)C[C@H]2NC(=O)c3ccccc3NC2=O)CC1,,inactive: 54.9%
Cc1ccc(NC(=O)COc2ccc3c(C)cc(=O)oc3c2)c(C)c1,"inconclusive: 100 µM [inhibitor, single point]",
Cc1c(C)c2ccc(OCC(=O)NC(Cc3c[nH]c4ccc(O)cc34)C(=O)O)c(C)c2oc1=O (stereo not given),"inconclusive: 56.2 µM [inhibitor, partial curve, poor fit]",
O=C(Nc1nnc(S(=O)(=O)N2CCCCC2)s1)c1ccc(Cl)cc1,inactive,
O=C(Nc1ccc2ccccc2c1)C(c1ccccc1)n1c(=O)c(-c2cc3ccccc3[nH]2)nc2ccccc21 (stereo not given),"inconclusive: 126 µM [inhibitor, single point]",
NC(=O)c1ccccc1OCc1coc(-c2ccc(F)cc2)n1,,inactive: 11.4%
COc1cc(/C=N/NC(=O)c2cc(-c3ccccc3Cl)nc3ccccc23)cc(OC)c1O,"inconclusive: 126 µM [inhibitor, single point]",
COCCNC(=O)Cc1ccc(Br)cc1,"inconclusive: 89.1 µM [inhibitor, partial curve, poor fit]",
Cn1c(=O)n(C)c2cc(NS(=O)(=O)c3ccc4c(c3)CCCC4)ccc21,"inconclusive: 44.7 µM [inhibitor, partial curve, poor fit]",

# Another view of part of the listing above.
SMILES	Potency	activity change, negative = inhibition
c1ccc(-c2nc3c4ccccc4ccn3c2CC2CCCCC2)cc1	inconclusive: 35.5 µM [inhibitor, partial curve, poor fit]	
O=C(Cc1ccccc1F)N1CCC(c2n[nH]c(=O)n2-c2ccccc2)CC1	inconclusive: 12.6 µM [inhibitor, full curve, poor fit]	
Cc1ccc(S(=O)(=O)N(C)C[C@H]2OCCCC[C@@H](C)Oc3ccc(N(C)C)cc3C(=O)N([C@H](C)CO)C[C@@H]2C)cc1	inconclusive: 50.1 µM [inhibitor, partial curve, poor fit]	
O=C(/C=C/c1ccco1)Nc1scc(-c2ccccc2)c1C(=O)O	inconclusive: 44.7 µM [inhibitor, partial curve, poor fit]	
C=CCc1ccc(OCC(O)CN2CCC(Cc3ccccc3)CC2)c(OC)c1 (stereo not given)	inconclusive: 39.8 µM [inhibitor, single point]	

# Further results follow.

SMILES,Potency,"activity change, negative = inhibition"
COc1ccc(OC)c(C(=O)COC(=O)CN2C(=O)NC3(CCCCC3C)C2=O)c1 (stereo not given),"inconclusive: 100 µM [inhibitor, partial curve, poor fit]",
COc1cccc(-c2ncc3ccccc3c2COC(=O)c2cccs2)c1,"inconclusive: 79.4 µM [inhibitor, single point]",
O=C(CNC(=O)c1cccs1)c1ccc(Cl)cc1,"inconclusive: 89.1 µM [inhibitor, single point]",
COc1ccc(-n2ncc(C(=O)Nc3ccc(C)cc3Cl)c2C2CCN(C(=O)OC(C)(C)C)CC2)cc1,,inactive: -16.2%
Cc1ccc(CN(c2ccc(C(=O)NCc3ccccc3C)cc2)S(C)(=O)=O)cc1,"inconclusive: 35.5 µM [inhibitor, partial curve]",
COc1cccc2oc3ccc(C#CC4(N)CCCCC4)cc3c(=O)c12,"inconclusive: 89.1 µM [inhibitor, single point]",
Cc1nc(Cc2nn3c(-c4cc(Cl)ccc4F)nnc3s2)cs1,"inconclusive: 56.2 µM [inhibitor, partial curve, poor fit]",
COC(=O)c1cc(NC(=O)COC(=O)CCc2nc3ccccc3c(=O)[nH]2)cc(C(=O)OC)c1,"inconclusive: 112 µM [inhibitor, partial curve, poor fit]",
CCN1CCC(N(Cc2ccco2)C(=O)Nc2cc(Cl)ccc2C(=O)OC)CC1,active: 6.31 µM,
CN(C)c1nc(F)c(F)c(S(=O)(=O)c2ccccc2)c1F,,inactive: -0.79%
Cn1c(=O)oc2cc(NC(=O)CCc3cc4n(n3)CCCNC4)ccc21,"inconclusive: 14.1 µM [inhibitor, full curve]",
COc1nc2ccccc2nc1N1CCC(C(=O)Nc2c(F)cccc2F)CC1,,inactive: 2.11%
Cc1cc(=O)n(CC(=O)Nc2cccc(C(F)(F)F)c2)c(N2CCC(C)CC2)n1,"inconclusive: 15.8 µM [inhibitor, full curve]",
NC(=O)c1ccc(OC2CCN(C(=O)C3CCC3)CC2)nc1,"inconclusive: 28.2 µM [inhibitor, full curve]",
O=S(=O)(NCCc1csc(-c2ccc(F)cc2)n1)c1ccc(F)cc1F,"inconclusive: 50.1 µM [inhibitor, partial curve, poor fit]",
CCc1ccc(C(=O)/C=C/Nc2ccc(S(=O)(=O)Nc3cnc4ccccc4n3)cc2)cc1,"inconclusive: 79.4 µM [inhibitor, partial curve, poor fit]",
O=C(c1ccc(C2CCCNC2)cc1)N1CCCN(c2ccc(F)cc2)CC1 (stereo not given),"inconclusive: 7.94 µM [inhibitor, full curve, poor fit]",
Cc1[nH]n(-c2ccccc2)c(=O)c1S(=O)(=O)c1ccccc1,"inconclusive: 6.31 µM [inhibitor, full curve, poor fit]",
Cc1ncc2c(c1CNC(=O)c1ccc3c(c1)OCO3)CCN(C(=O)c1coc3c1C(=O)CCC3)C2,"inconclusive: 8.91 µM [inhibitor, full curve, poor fit]",
COc1ccc(-c2cnc3[nH]cc(CC(=O)NC4CCOCC4)c3c2)cc1,,inactive: 0.336% [at 176 µM]
CCC(C(=O)N1CCN(S(=O)(=O)c2sc(C(=O)O)c(C)c2C(=O)O)CC1)c1ccccc1 (stereo not given),"inconclusive: 25.1 µM [inhibitor, single point]",
O=S(=O)(N[C@H](CO)Cc1ccccc1)c1ccc(Br)cc1F,"inconclusive: 50.1 µM [inhibitor, partial curve, poor fit]",

SMILES,Potency,"activity change, negative = inhibition"
O=C(CSc1ccccc1)Nc1ccc(N2CCOCC2)cc1,"inconclusive: 11.2 µM [inhibitor, full curve]",
O=S(=O)(O)c1ccc(O)c2cc(Nc3ccccc3)ccc12,active: 31.6 µM,
COC(=O)/C(=N/Nc1ccccc1)N1CCCc2ccccc21,"inconclusive: 141 µM [inhibitor, partial curve, poor fit]",
CCN(CC)C(=O)[C@H]1C[C@H](CC(=O)NC(C)(C)C)C(=O)N2CCc3c([nH]c4cc(-c5ccco5)ccc34)[C@]12C,"inconclusive: 89.1 µM [inhibitor, partial curve, poor fit]",
CCC(C)Sc1ccc([C@H]2N[C@@](Cc3ccccc3)(C(=O)OC)[C@H]3C(=O)N(CC)C(=O)[C@@H]23)cc1OC (stereo not given in full),,inactive: -6.81%
Clc1ccc(OCCN2CCN(Cc3nc(C4CC4)no3)CC2)cc1,,inactive: -25.3%
COCCN(Cc1c(C)nn(C)c1C)C(=O)[C@H]1CC[C@@H](N)C1,"inconclusive: 15.8 µM [inhibitor, full curve]",
Cc1ccc(N2CCN(C3C(=O)Nc4ccccc4-n4nnnc43)CC2)cc1 (stereo not given),"inconclusive: 141 µM [inhibitor, partial curve, poor fit]",
O=C(O)c1ccccc1-c1cn2cc(Cl)ccc2n1,"inconclusive: 7.94 µM [inhibitor, full curve]",
COc1ccc(NC(=O)Cc2ccccc2)cn1,,inactive: 12.1%
CC(C)NC(=S)NN=C1CCC(c2ccccc2)CC1 (stereo not given),"inconclusive: 44.7 µM [inhibitor, partial curve, poor fit]",
Cc1ccc(NC(=O)CN2CCCC2c2cccn2C)cc1C (stereo not given),,inactive: 0.865%
NC(=O)[C@@H]1C[C@H](Oc2cccnc2)CN1C(=O)c1cccs1,"inconclusive: 25.1 µM [inhibitor, full curve]",
O=C(CSc1nnc(CNc2cccc(C(F)(F)F)c2)n1Cc1ccco1)NCc1ccco1,"inconclusive: 15.8 µM [inhibitor, partial curve, poor fit]",
COC(=O)c1cc(NC(=O)Nc2cccc(Cl)c2)ccc1Cl,"inconclusive: 56.2 µM [inhibitor, partial curve, poor fit]",
CCOC(=O)[C@]12CCC=C1N(Cc1ccco1)C(=O)[C@H](CC(=O)NCCCOC)C2,"inconclusive: 35.5 µM [inhibitor, single point]",
COc1ccc(C2CC(c3cccs3)=NN2C(=O)CSc2nc3ccccc3s2)cc1 (stereo not given),,inactive: -24.2%
COc1ccc(CCc2nc3nccc(-c4cccc(OC)c4)n3n2)cc1,,inactive: -6.78%
CS(=O)(=O)N(Cc1ccc(Cl)cc1)c1ccc(C(=O)NCCSCc2ccco2)cc1,"inconclusive: 1.41 µM [inhibitor, full curve, poor fit]",
CC[C@H]1CN(C(=O)C(C)(C)C)CC[C@H]1CC(=O)O,,inactive: 4.33% [at 176 µM]
O=C(Nc1ccccc1F)c1cc(CN2CCOCC2)on1,,inactive: 7.66%
